Experimental data: the supplement of paper PMC12494721
Counter-ions that a name gives are not always drawn. This list holds what a sample rich in lowest values left over.

Columns and labels:
Experiment in all cases: growth (OD595) fold change vs plate DMSO controls (fold change (ratio)); higher = more growth
Details in all cases: 20 µM; incubation time: 27 h, anaerobic, 37 °C
[1] = test system: Clostridium sporogenes DSM 1664
Method in brief: (§1)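 Absorbance at 595 nm was read after shaking the anaerobic mGAM cultures, which had grown in 96-well plates for 27 h at 37 °C. After blank subtraction and background correction against 20 µM compound solutions in water, a calibration factor of 5 gave OD values. Growth is the fold change against the median of the plate's DMSO controls. Values are the mean of 2 biological replicates, with fold changes above 1.5 set to NA.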

[2] = test system: Escherichia coli IAI1
Method in brief: as §1

[3] = test system: Klebsiella aerogenes DSM 30053
Method in brief: as §1

[4] = test system: Ruminococcus gnavus DSM 108212
Method in brief: as §1

CN1[C@@H]2CC[C@H]1CC(OC(=O)C(O)c1ccccc1)C2 (mixture of isomers) [(R,S) Homatropine hydrobromide]
growth [1]: 0.935 | growth [2]: 1.1 | growth [3]: 1.14 | growth [4]: 1.08

CCC(C)C(C(=O)OCC[N+](C)(CC)CC)c1ccccc1 (stereo not drawn) [Valethamate bromide]
growth [1]: 1.01 | growth [2]: 1.02 | growth [3]: 0.996 | growth [4]: 0.896
